At least one structure is not confirmed: it was looked up by name or label, or the drawing left a doubt.
Test system: S.aureus CCM 4223
Assay: Microdilution MIC, reference strain
Details: read after 24/48 hours at 37°C

CCCCCCCCCCCCCCOP(=O)(CCN1C[C@@H](O)[C@H](O)C1)OC[C@H]1O[C@@H](n2ccc(=O)[nH]c2=O)[C@H](O)[C@@H]1O (stereo partly drawn) [Example 17, Tetradecyl uridin-5'-yl 2-([3R,4R]-3,4-dihydroxypyrrolidin-l-N-yl)ethylphosphonate]
MIC S.aureus CCM 4223: 25-12.5
